Results deposited as PubChem BioAssay AID1259282 (Sanger Institute, 2017)
Assay: 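Kinase knock-downs that work with targeted colorectal cancer drugs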 (primary screen). Cells: DIFI human colorectal cancer cell line. Reagent: siRNA pool against human genes. Challenge: anchor drug at a mild dose (BYL719 1 µM, cetuximab 5 µg/ml, trametinib 10 nM) or DMSO vehicle; exposure time not given. Detection: 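Robust z-score and replicate-mean viability versus non-targeting pool without drug, plus a synergy score for each low-dose anchor drug (BYL719, cetuximab, trametinib)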. Scale: robust z-score, knock-down alone: higher = more viable cells than typical knock-down; viability, knock-down alone: higher = more viable cells; synergy score with trametinib and synergy score with cetuximab and synergy score with BYL719: higher = stronger combined killing with drug. Hit rule: 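Essential when the robust z-score of the knock-down without drug falls below -3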. Meaning of the calls: active = essential (knock-down alone, z below -3); inactive = not essential.
In all, the deposit lists 794 reagents; below is an unselected part. 11 of all reagents (1.4%) were called active. 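Calls flag knock-downs that lower viability without drug; drug synergy appears only in the synergy scores; exposure time not stated.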 No viability above 1 is reported: the scale is capped. Not stated in the record: the amount of reagent, the time to read-out.

gene knocked down	robust z-score, knock-down alone	viability, knock-down alone (fraction of control)	synergy score with trametinib	synergy score with cetuximab	synergy score with BYL719	call
STK10 (GeneID 6793)	-0.0162	0.894	0.0733	0.173	-0.0373	inactive
GALK1 (GeneID 2584)	-1.13	0.732	-0.0821	-0.209	-0.0334	inactive
EPHA4 (GeneID 2043)	-1.03	0.746	-0.0716	-0.206	-0.105	inactive
WNK4 (GeneID 65266)	0.715	1	-0.0347	0.0365	-0.155	inactive
NLK (GeneID 51701)	0.473	0.965	0.292	0.157	0.103	inactive
DCLK2 (GeneID 166614)	0.715	1	0.00678	-0.0197	-0.199	inactive
PRKCZ (GeneID 5590)	-1.06	0.742	-0.0278	-0.0738	-0.0288	inactive
PRKY (GeneID 5616)	-0.161	0.873	0.0936	0.0633	-0.183	inactive
HIPK2 (GeneID 28996)	-0.527	0.82	0.0561	-0.0816	-0.0618	inactive
PRKAR1A (GeneID 5573)	0.682	0.995	-0.0179	0.00497	0.0483	inactive
PRKCD (GeneID 5580)	-0.385	0.84	-0.0395	-0.118	0.051	inactive
ASPM (GeneID 259266)	0.422	0.958	0.224	0.147	0.0661	inactive
CAMK2B (GeneID 816)	-0.649	0.802	0.084	0.0808	-0.0648	inactive
DGKI (GeneID 9162)	0.715	1	0.0836	0.00404	-0.23	inactive
GOLGA5 (GeneID 9950)	0.715	1	-0.137	-0.000763	-0.182	inactive
KALRN (GeneID 8997)	0.715	1	0.233	0.137	-0.00235	inactive
NEK10 (GeneID 152110)	0.715	1	0.068	0.0395	-0.0218	inactive
CAMK2G (GeneID 818)	0.111	0.912	-0.0296	0.00407	-0.0405	inactive
NME2 (GeneID 4831)	0.715	1	0.0247	-0.0587	-0.194	inactive
PBK (GeneID 55872)	0.715	1	-0.092	0.0279	-0.283	inactive
PNCK (GeneID 139728)	-0.458	0.83	-0.0455	-0.015	-0.176	inactive
KSR1 (GeneID 8844)	-0.838	0.774	0.259	0.065	0.071	inactive
CASP8 (GeneID 841)	0.715	1	-0.0876	0.0231	-0.362	inactive
BLK (GeneID 640)	0.715	1	0.0257	-0.203	-0.224	inactive
STK31 (GeneID 56164)	0.224	0.929	0.0271	0.027	-0.193	inactive
BUB1B (GeneID 701)	-0.59	0.81	0.121	0.108	0.13	inactive
SRPK3 (GeneID 26576)	0.534	0.974	0.172	0.0224	-0.113	inactive
MAP2K1 (GeneID 5604)	0.444	0.961	0.23	0.148	0.176	inactive
BMX (GeneID 660)	0.715	1	0.11	0.0758	-0.106	inactive
NTRK3 (GeneID 4916)	0.715	1	0.115	0.029	-0.209	inactive
FBXW7 (GeneID 55294)	0.715	1	0.0204	-0.0403	-0.222	inactive
CDK16 (GeneID 5127)	-2.28	0.565	0.139	0.121	0.0577	inactive
PIKFYVE (GeneID 200576)	0.715	1	-0.0545	0.0167	-0.19	inactive
TEK (GeneID 7010)	0.715	1	-0.137	0.0111	-0.26	inactive
